# Results taken from PubChem BioAssay AID2685 (National Center for Advancing Translational Sciences (NCATS), 2010).
# The list shows a part of the results. These are further read-outs of the screen, such as a control signal, another cell line or another target. No call is given for them. The list favours compounds with an active or inconclusive main result. Potencies come from curve fits of mixed quality, noted in brackets.
# Experiment: qHTS Assay for Lipid Storage Modulators in Drosophila S3 Cells;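 for cell number change: cells counted by Cell Tracker Red CMTPX staining in the red channel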
# Details: BODIPY lipid droplet fluorescence, 18-24 h; for cell number change: measured here: cell count max response, cells fed with added oleic acid
# In short: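 Drosophila S3 cells got compounds at several concentrations plus oleic acid (400 uM solution). Laser-scanning cytometry with 488 nm excitation read lipid droplets at 500-530 nm and cells at 575-640 nm. Percent activity was relative to 20 uM Triacsin C.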
# [1] = measured here: lipid fluorescence (Fed channel) AC50, cells fed with added oleic acid
# [2] = measured here: cell number channel AC50, cells fed with added oleic acid
SMILES,AC50 [1],cell number change [%],AC50 [2]
O=C(CSc1nnc(Nc2ccccc2F)s1)NC1CCCC1,"10.3 µM [falling, partial curve]",–,–
CCN1CCN(c2ccc(NC(=O)c3cc(OC)c(OC)c(OC)c3)cc2)CC1,"2.06 µM [rising, partial curve, poor fit]",15.9,–
O=C(O)CCC(=O)Nc1nc2ccccc2s1,"29.1 µM [falling, single point]",-75.5,"29.1 µM [falling, single point]"
CCOC(=O)C1CCN(C(=O)CCNS(=O)(=O)c2ccc(C)cc2)CC1,"0.326 µM [falling, full curve]",-1.96,–
CSc1ccccc1NC(=O)CN(C)C(=O)Cn1c(=O)oc2ccccc21,–,0.803,–
COc1ccccc1CNC(=O)CCNS(=O)(=O)c1cccc2nsnc12,–,12.9,–
CCN1CCN(c2nc(-c3ccccc3)nc3ccccc23)CC1,–,1.02,–
Cc1oc(-c2cccc(Cl)c2)nc1CN1CCC(C(=O)NCCCN2CCCC2=O)CC1,–,1.84,–
COc1ccc(CC(=O)NNC(=O)c2cnccn2)cc1,"6.51 µM [rising, partial curve, poor fit]",4.95,–
C=CCNc1nc2c(c(=O)[nH]c(=O)n2C)n1CCCCC,–,–,"0.13 µM [rising, full curve, poor fit]"
CCn1cc(Cl)c(C(=O)Nc2nccs2)n1,"23.1 µM [falling, single point]",4.7,–
Cc1cc2nncn2c2ccccc12,–,27.3,"1.16 µM [rising, full curve]"
COc1ccc(CNc2ccc3c(c2)CCC3)cc1OC,"5.17 µM [rising, full curve, poor fit]",–,"0.082 µM [rising, full curve, poor fit]"
COC(=O)c1ccc(NC(=O)c2ccccc2N(C)S(C)(=O)=O)cc1,–,7.14,–
COc1ccc(NC(=O)c2ccccc2)cc1,"29.1 µM [falling, single point]",–,–
CCc1cccc(C)c1NC(=O)C1C2CCC(O2)C1C(=O)O (stereo not drawn),"29.1 µM [falling, single point]",-31.4,–
C=CCSc1ncccc1C(=O)NCCc1ccc(Cl)cc1,–,38.3,"11.6 µM [rising, partial curve, poor fit]"
CCNC(=S)N(Cc1cc2cc(C)ccc2[nH]c1=O)C1CCCC1,"20.6 µM [rising, single point]",9.21,–
COc1ccccc1/C=C\C=N\n1c(-c2ccc(Cl)cc2)n[nH]c1=S,"2.91 µM [rising, single point]",0.25,–
O=Cc1c(Nc2ccccc2Cl)nc2ccccn2c1=O,"29.1 µM [falling, single point]",-10.6,–
O=C1NC2(CCCC2)N=C1c1ccc(Cl)cc1,"13 µM [rising, partial curve, poor fit]",9.81,–

SMILES,AC50 [1],cell number change [%],AC50 [2]
CCc1ccccc1N(CC(=O)N/N=C/c1ccc(OC(=O)OC)c(OC)c1)S(C)(=O)=O,"6.51 µM [falling, single point]",18.9,–
Cc1c(NC(=O)C(C)OC(=O)c2cccs2)c(=O)n(-c2ccccc2)n1C (stereo not drawn),"0.326 µM [falling, full curve, poor fit]",-4.8,–
CCOC(=O)c1cc(C)n(CCc2ccccc2)c1C,"6.51 µM [rising, single point]",-15,–
Cc1cc(C)nc(SCc2ccc(Cl)cc2)n1,–,11,–
COc1ccc(C2C(C#N)=C(N)Oc3c2c(C)nn3-c2ccccc2)cc1Cn1nc(C)c([N+](=O)[O-])c1C (stereo not drawn),–,-24.4,–
CCOC(=O)c1c(C)[nH]c(C(=O)OC(C)C(=O)NC2CCCCC2C)c1C (stereo not drawn),"23.1 µM [falling, single point]",-37.6,"29.1 µM [falling, single point]"
CC(=O)C1=C(C)Nc2ncnn2C1c1ccc(Cl)cc1Cl (stereo not drawn),–,46.5,"18.4 µM [rising, single point]"
Cc1cccc(C)c1OCC(=O)N(Cc1cccs1)C1CCS(=O)(=O)C1 (stereo not drawn),"0.651 µM [rising, full curve, poor fit]",12.7,–
Cc1c(OCC(=O)OC(C)(C)C)ccc2c3c(c(=O)oc12)CCC3,"3.26 µM [rising, single point]",-2,–
CSc1nc2n(n1)C(c1cccs1)C1=C(CCCC1=O)N2 (stereo not drawn),"29.1 µM [falling, single point]",-10.6,–
O=C(O)CCC(=O)N(Cc1cccnc1)Cc1cccc(F)c1,–,45.1,"20.6 µM [rising, partial curve, poor fit]"
N#Cc1ccccc1NC(=O)COC(=O)/C=C/c1cn(-c2ccccc2)nc1-c1ccc(Cl)cc1,–,-16.3,–
Cc1ccc(NC(=O)C2CCCN(c3cnccn3)C2)c(C)c1 (stereo not drawn),"18.4 µM [rising, partial curve]",-25.5,–
CCCCCCCCn1c(=O)c(C(=O)OC)c(N)c2ccccc21,"4.61 µM [falling, full curve]",-61.6,–
COc1ccccc1N1CCN(C(=O)/C=C/c2ccco2)CC1,"29.1 µM [falling, single point]",–,–
CCN(CC1CCCN(CCc2cccc(OC)c2)C1)C(=O)c1ccoc1 (stereo not drawn),"29.1 µM [rising, single point]",1.98,–
COc1ccc(OC)c(CN2CCN(Cc3cc(OC)c(OC)c(OC)c3)CC2)c1,"0.651 µM [falling, partial curve]",-13.9,–
CC(C)(C)c1cc(C(C)(C)C)n(-c2ccccc2)n1,–,-31,"2.59 µM [falling, full curve]"
Cc1cc(C)nc(N/N=C/c2c[nH]c3ccccc23)n1,"0.92 µM [falling, full curve]",–,–
Cc1ccc(NC(=O)C(C)OC(=O)CCNS(=O)(=O)c2ccc(C)cc2)cc1 (stereo not drawn),"29.1 µM [falling, single point]",32.6,"16.4 µM [rising, partial curve]"
O=C(Oc1ccccc1)c1ccc(-n2cnnn2)cc1,"0.731 µM [falling, full curve, poor fit]",-1.07,–

SMILES,AC50 [1],cell number change [%],AC50 [2]
COc1ccc(-n2c(=O)c3c4c(sc3n3c(=S)[nH]nc23)COC(C(C)C)C4)cc1 (stereo not drawn),–,32,"29.1 µM [rising, single point]"
Cc1cc(Nc2ccccc2F)n2ncnc2n1,"1.84 µM [falling, partial curve]",–,"0.291 µM [falling, full curve]"
CCOc1ccc(NC(=O)N2CCN(CC)CC2)cc1,"0.00461 µM [falling, full curve, poor fit]",-183,"29.1 µM [falling, single point]"
Cc1occc1C(=O)Nc1ccc(S(N)(=O)=O)cc1,"6.51 µM [falling, single point]",7.04,–
CCCc1nn(C)c(C(=O)Nc2ccc3ccccc3c2)c1Cl,"4.61 µM [rising, full curve]",7.11,–
O=c1c2cc(NC(=S)NCCN3CCCCCC3)ccc2nc2n1CCCCC2,"0.103 µM [rising, full curve, poor fit]",–,–
O=C1COc2ccc(C(=O)COC(=O)c3cnc(Cl)c(Cl)c3)cc2N1,–,7.87,–
CC(OC(=O)CN1C(=O)c2ccccc2C1=O)C(=O)NC1(C#N)CCCCC1 (stereo not drawn),"2.31 µM [falling, full curve, poor fit]",-10.1,–
COc1ccc(CCn2c(=O)c3cccnc3n(Cc3cccc([N+](=O)[O-])c3)c2=O)cc1OC,"0.164 µM [rising, full curve]",14.1,–
Cc1cc(C)c(C)c(OCC(=O)O/N=C(\N)c2ccccn2)c1,"6.51 µM [rising, single point]",–,"2.31 µM [rising, single point]"
Cc1ccc2c(c1)NC(=O)C(CC(=O)Nc1ccc(CN3CCC(C)CC3)cc1)O2 (stereo not drawn),"20.6 µM [rising, single point]",35,"29.1 µM [rising, single point]"
CC(C)(C)OC(=O)N[C@@H](Cc1ccccc1)c1nnc(S(=O)(=O)Cc2cccc(F)c2)o1,"20.6 µM [falling, partial curve]",-96.3,"20.6 µM [falling, partial curve]"
CCOC(=O)c1c(C)[nH]c(C(=O)O)c1C,"2.06 µM [rising, partial curve]",77.6,"23.1 µM [rising, partial curve]"
O=S(=O)(Nc1ccccc1N1CCCCC1)c1ccccc1,"0.82 µM [rising, full curve, poor fit]",17.1,"0.461 µM [rising, full curve]"
CC(=O)C1=C(O)C(=O)OC1c1ccc(Cl)cc1 (stereo not drawn),"14.6 µM [falling, partial curve, poor fit]",-18.4,–
CCN(CC)CC(=O)Nc1sc(C)cc1C(=O)c1ccc(C)cc1,"13 µM [rising, partial curve]",-7.61,–
Cc1nc(CC(=O)N2CCN(c3cccc(C)c3C)CC2)cs1,"23.1 µM [rising, single point]",31.5,"3.66 µM [rising, single point]"
Cc1ccccc1C(=O)N1CCC(C(=O)Nc2sccc2C(N)=O)CC1,"29.1 µM [rising, single point]",5.09,–
CCc1noc(C)c1C(=O)NNC(=O)COc1ccc(C)cc1,"0.184 µM [falling, full curve, poor fit]",6,–
CNC(=O)CO/N=C/c1ccc(N(C)C)cc1,"6.51 µM [falling, single point]",12.8,–

# Copied from the entries so far (two entries):
SMILES,AC50 [1],cell number change [%],AC50 [2]
CC(C)(C)c1cc(C(C)(C)C)n(-c2ccccc2)n1,–,-31,"2.59 µM [falling, full curve]"
Cc1cc(C)nc(N/N=C/c2c[nH]c3ccccc23)n1,"0.92 µM [falling, full curve]",–,–
